We go through one substance from US20030215899A1, “Reversible oxidation of protein tyrosine phosphatases” (CEPTYR, Inc., priority 2002, published 2003).

Protein sequences, listed by entry. Tags and fused reporters are not part of them. Lines headed by an entry give the natural chain unless they say otherwise; changes in a name come on top.
UniProt Q99062: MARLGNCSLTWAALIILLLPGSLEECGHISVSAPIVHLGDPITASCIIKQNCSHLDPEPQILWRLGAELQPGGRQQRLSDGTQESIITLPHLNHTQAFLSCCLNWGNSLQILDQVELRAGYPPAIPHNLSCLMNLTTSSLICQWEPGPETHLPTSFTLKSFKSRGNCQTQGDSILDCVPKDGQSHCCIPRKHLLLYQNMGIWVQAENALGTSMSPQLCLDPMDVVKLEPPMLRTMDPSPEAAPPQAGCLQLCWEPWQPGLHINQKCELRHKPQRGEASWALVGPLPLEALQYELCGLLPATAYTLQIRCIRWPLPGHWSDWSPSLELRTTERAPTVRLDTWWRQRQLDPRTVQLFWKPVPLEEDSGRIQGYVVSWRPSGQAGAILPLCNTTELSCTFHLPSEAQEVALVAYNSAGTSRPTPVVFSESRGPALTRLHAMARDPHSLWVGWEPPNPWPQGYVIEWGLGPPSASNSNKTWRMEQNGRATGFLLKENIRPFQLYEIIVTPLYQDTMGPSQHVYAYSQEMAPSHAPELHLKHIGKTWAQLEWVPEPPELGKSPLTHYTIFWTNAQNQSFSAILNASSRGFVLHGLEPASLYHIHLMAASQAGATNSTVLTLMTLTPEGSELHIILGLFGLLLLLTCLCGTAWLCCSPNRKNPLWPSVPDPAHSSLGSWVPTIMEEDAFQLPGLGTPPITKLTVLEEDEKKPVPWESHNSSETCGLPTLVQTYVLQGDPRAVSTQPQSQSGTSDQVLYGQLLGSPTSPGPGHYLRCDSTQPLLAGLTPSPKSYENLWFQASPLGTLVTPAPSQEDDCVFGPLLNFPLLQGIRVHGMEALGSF

No constants are given. Whether binding was seen depends on the method and setting. In cells and extracts the contact can be indirect. Some results given as binding are weak or reduced against the parent protein; the word gives no strength.

For the experiment, the target named is WT G-CSFR/PDGFR chimeric receptor (human) (UniProt Q99062+P09619). Nature of the experiment: co-immunoprecipitation with Ab-X from G-CSF-stimulated transfected Rat-1 cells, anti-SHP-2 immunoblot.

In the case of “SHP-2 (from UniProt P41499 2-593) (enzyme)”, the binding entry is recorded as “binds”.
